Laboratory results published in the supplement of paper PMC11438910.
The list shows a part of the results. Most of these values are background signal.

Tests used:
Experiment in all cases: fluorescence intensity of antibody binding to polysaccharide-coupled beads; higher = stronger binding
[1] = biological target: pneumococcal polysaccharide C-Poly-1
Experimental: (§1)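 Recombinant rhesus-murine chimeric IgG1 antibodies were tested against antigen-coupled MagPlex beads in a 96-plex Luminex direct immunoassay (dLIA). The beads carried pneumococcal capsular polysaccharides of 93 serotypes plus C-polysaccharides. Antibody was added at 0.1–12,500 ng/mL for 1 h, then PE anti-mouse IgG, and net MFI was read on a Bio-Plex 3D. Only the rhesus variable regions are printed; constant regions are murine IgG1/kappa/lambda, and the signal peptide is MGWSCIILFLVATATGVHS.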

[2] = biological target: pneumococcal polysaccharide C-Poly-2
Experimental: as §1

[3] = biological target: pneumococcal polysaccharide Pn1
Experimental: as §1

[4] = biological target: pneumococcal polysaccharide Pn10A
Experimental: as §1

[5] = biological target: pneumococcal polysaccharide Pn10B
Experimental: as §1

[6] = biological target: pneumococcal polysaccharide Pn10C
Experimental: as §1

[7] = biological target: pneumococcal polysaccharide Pn10F
Experimental: as §1

[8] = biological target: pneumococcal polysaccharide Pn11A
Experimental: as §1

[9] = antibody concentration 0.1 ng/mL
[10] = antibody concentration 0.534724 ng/mL
[11] = antibody concentration 2.8593 ng/mL
[12] = antibody concentration 15.2894 ng/mL
[13] = antibody concentration 81.7561 ng/mL
[14] = antibody concentration 437.17 ng/mL
[15] = antibody concentration 2337.65 ng/mL
[16] = antibody concentration 12500 ng/mL

B1: 4-80.2 (protein)
chain 1: QVQLQESGPGLVKPSETLSLTCAVSGDSFSSYWWSWIRQPPGKGLEWIGEINGNVGSTNYNPSLKSRVTISKDASKNQFSLKLSSVTAADTAVYYCARYKEYWGQGVLVTVSS
chain 2: DVVMTQSPLSLPITPGQPASISCRSSQSLVHSNGNTYLSWYQQKPGQPPRRLIYEVSNRDSGVPDRFSGSGAGTDFTLKISRVEAEDVGVYYCGQGTHLPYSFGQGTKVEIK
Work on B1 yielded a fluorescence intensity [1, 9] of 28 MFI, a fluorescence intensity [1, 10] of 26.5 MFI and a fluorescence intensity [1, 11] of 30 MFI. The fluorescence intensity [1, 12] was 25.5 MFI, the fluorescence intensity [1, 13] was 25.8 MFI and the fluorescence intensity [1, 14] was 27.2 MFI. The fluorescence intensity [1, 15] was 29.2 MFI, the fluorescence intensity [1, 16] was 58 MFI and the fluorescence intensity [2, 9] was 23.5 MFI. For the same binder, the fluorescence intensity [2, 10] was 22.5 MFI, the fluorescence intensity [2, 11] was 21.8 MFI and the fluorescence intensity [2, 12] was 21 MFI. It also gave a fluorescence intensity [2, 13] of 21 MFI, a fluorescence intensity [2, 14] of 22.2 MFI and a fluorescence intensity [2, 15] of 25.8 MFI. It also gave a fluorescence intensity [2, 16] of 51 MFI, a fluorescence intensity [3, 9] of 14.5 MFI and a fluorescence intensity [3, 10] of 14.2 MFI. For the same binder, the fluorescence intensity [3, 11] was 13.5 MFI, the fluorescence intensity [3, 12] was 13.5 MFI and the fluorescence intensity [3, 13] was 13.5 MFI. It also gave a fluorescence intensity [3, 14] of 15 MFI, a fluorescence intensity [3, 15] of 16.5 MFI and a fluorescence intensity [3, 16] of 26 MFI. It also gave a fluorescence intensity [4, 9] of 27.5 MFI, a fluorescence intensity [4, 10] of 26.5 MFI and a fluorescence intensity [4, 11] of 27.5 MFI. The fluorescence intensity [4, 12] was 27 MFI, the fluorescence intensity [4, 13] was 27.5 MFI and the fluorescence intensity [4, 14] was 27 MFI. For the same binder, the fluorescence intensity [4, 15] was 28 MFI, the fluorescence intensity [4, 16] was 33 MFI and the fluorescence intensity [5, 9] was 24.2 MFI. The fluorescence intensity [5, 10] was 24.5 MFI, the fluorescence intensity [5, 11] was 24 MFI and the fluorescence intensity [5, 12] was 22.5 MFI. For the same binder, the fluorescence intensity [5, 13] was 24.2 MFI, the fluorescence intensity [5, 14] was 24 MFI and the fluorescence intensity [5, 15] was 25.5 MFI. It also gave a fluorescence intensity [5, 16] of 31.5 MFI, a fluorescence intensity [6, 9] of 16.2 MFI and a fluorescence intensity [6, 10] of 17.2 MFI. It also gave a fluorescence intensity [6, 11] of 17.5 MFI, a fluorescence intensity [6, 12] of 17.2 MFI and a fluorescence intensity [6, 13] of 17.2 MFI. For the same binder, the fluorescence intensity [6, 14] was 18.2 MFI, the fluorescence intensity [6, 15] was 18.5 MFI and the fluorescence intensity [6, 16] was 20.2 MFI. The fluorescence intensity [7, 9] was 19.5 MFI, the fluorescence intensity [7, 10] was 21.5 MFI and the fluorescence intensity [7, 11] was 18.5 MFI. It also gave a fluorescence intensity [7, 12] of 20 MFI, a fluorescence intensity [7, 13] of 19.5 MFI and a fluorescence intensity [7, 14] of 17.8 MFI. For the same binder, the fluorescence intensity [7, 15] was 21.5 MFI, the fluorescence intensity [7, 16] was 23.2 MFI and the fluorescence intensity [8, 9] was 29.5 MFI. It also gave a fluorescence intensity [8, 10] of 29.5 MFI, a fluorescence intensity [8, 11] of 31 MFI and a fluorescence intensity [8, 12] of 27.5 MFI.
